Results are given in words; binding and its absence hold for the method and conditions named. In cells and extracts the contact can be indirect. Binding can be weak; no strength is given.
Target: epitope-tagged form of the cytoplasmic domain of APP (mT-APP)
Assay: co-immunoprecipitation with anti-mDab1 from transfected 293T cells, Western blot to the epitope tag

binding: binds
B1: mDab1 p80 (mDab555 product) (protein)
chain: MSTETELQVAVKTSAKKDSRKKGQDRSEATLIKRFKGEGVRYKAKLIGIDEVSAARGDKLCQDSMMKLKGVVAGARSKGEHKQKIFLTISFGGIKIFDEKTGALQHHHAVHEISYIAKDITDHRAFGYVCGKEGNHRFVAIKTAQAAEPVILDLRDLFQLIYELKQREELEKKAQKDKQCEQAVYQTILEEDVEDPVYQYIVFEAGHEPIRDPETEENIYQVPTSQKKEGVYDVPKSQPVSAVTQLELFGDMSTPPDITSPPTPATPGDAFLPSSSQTLPGSADVFGSMSFGTAAVPSGYVAMGAVLPSFWGQQPLVQQQIAMGAQPPVAQVIPGAQPIAWGQPGLFPATQQAWPTVAGQFPPAAFMPTQTVMPLAAAMFQGPLTPLATVPGTNDSARSSPQSDKPRQKMGKESFKDFQMVQPPPVPSRKPDQPSLTCTSEAFSSYFNKVGVAQDTDDCDDFDISQLNLTPVTSTTPSTNSPPTPAPRQSSPSKSSASHVSDPTADDIFEEGFESPSKSEEQEAPDGSQASSTSDPFGEPSGEPSGDNISPQDGS

Source: patent US7250505
